# Measured values taken from PMC9728970.
# No constants are given. Whether binding was seen depends on the method and setting. In cells and extracts the contact can be indirect. Some entries that bind do so weakly or less than the wild type. Sequences can lack the tags named with a protein.
# Target: T1, HA-PRMT4 (UniProt Q86X55)
# T1 sequence: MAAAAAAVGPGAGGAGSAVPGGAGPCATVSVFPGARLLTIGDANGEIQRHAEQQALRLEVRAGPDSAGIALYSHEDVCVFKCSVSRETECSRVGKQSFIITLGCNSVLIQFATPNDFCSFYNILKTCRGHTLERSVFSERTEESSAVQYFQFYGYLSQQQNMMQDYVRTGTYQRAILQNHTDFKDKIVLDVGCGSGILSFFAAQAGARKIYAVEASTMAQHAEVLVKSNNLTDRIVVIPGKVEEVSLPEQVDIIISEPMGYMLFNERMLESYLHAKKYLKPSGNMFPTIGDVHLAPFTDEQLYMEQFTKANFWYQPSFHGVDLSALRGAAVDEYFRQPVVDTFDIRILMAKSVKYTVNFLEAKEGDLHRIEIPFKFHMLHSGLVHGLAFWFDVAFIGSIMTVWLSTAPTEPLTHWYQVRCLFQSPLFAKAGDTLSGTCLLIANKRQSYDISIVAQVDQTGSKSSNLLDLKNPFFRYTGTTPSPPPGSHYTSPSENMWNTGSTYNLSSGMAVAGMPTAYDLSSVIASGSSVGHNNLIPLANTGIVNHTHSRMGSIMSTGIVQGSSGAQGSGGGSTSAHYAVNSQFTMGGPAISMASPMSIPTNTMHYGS
# Experiment: co-IP; HA-tag IP from whole-cell lysate of HEK293T cells transfected with or without HA-PRMT2 or HA-PRMT4; immunoblot
substance,measurement,value
BRD4 in HEK293T lysate (from UniProt O60885 1-1362) (other; other documents disagree on this pair),binding,binds
